Reference: article PMC8569185 (Frontiers in Pharmacology, 2021)
Strings that start with PEPTIDE1 are HELM notation: dots part the residues, brackets hold end groups and non-standard residues.

How the values were obtained:
[1] = Fmoc solid-phase peptide synthesis; Fmoc-L-Ser(t-Bu) TentaGel R resin; settings: whole synthesis, A215
peptide synthesis = settings: whole synthesis, A215

Substance | final HPLC purity [1] | final HPLC purity (peptide synthesis)
PEPTIDE1{Y.G.G.F.M.R.R.V.G.R.P.E.W.L.V.D.S}$$$$V2.0 | 97% | 
PEPTIDE1{Y.G.G.F.M.R.R.V.G.R.P.E.W}$$$$V2.0 |  | 98%
PEPTIDE1{Y.G.G.F.M.R.R.V}$$$$V2.0 |  | 96%
